Record: PubChem BioAssay AID1159578 (Peter MacCallum Cancer Centre, 2015)
Here is one part, drawn at random, of about 18,000 reagents. Of all reagents, about 1,030 (5.7%) are marked active. 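Inactive calls also include pools with fewer than 3300 nuclei, whose migration was not assessed.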 The raw values are shown without normalisation. The numbers tell different reagents against one gene apart. Not all columns of the deposit are shown.

- Assay: 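Genome-wide hunt for genes controlling movement of lymphatic endothelial cells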 (primary screen)
- Cell system: human lymphatic endothelial cells
- Reagents: siRNA pool against human genes, 40 nM
- Time to read-out: 48 h after transfection
- Measurement: 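High-content imaging of dye-stained cells in a scratch assay measures filled wound area and nuclei per well; duplicate means given as ratio to mock and robust z-score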
- Scale: migration robust z-score: higher = faster migration into the scratch; nuclei per well: higher = more cells in the well
- Active means: 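Migration changed when robust z exceeds 2 or falls below -2 and mean nuclei number is at least 3300; otherwise not called changed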
- Meaning of the calls: active = migration changed; inactive = no migration change, or too few cells

no.	gene	reagent no.	migration robust z-score	nuclei per well, duplicate mean	Outcome
1	CCDC112	1	1.5	5344	inactive
2	NEK1	1	1.32	6415	inactive
3	GLIPR1	1	3.31	5799	active
4	ZNF658	1	-0.16	4262	inactive
5	WDR77	1	-1.28	6842	inactive
6	SPTSSA	1	0.52	6946	inactive
7	BORCS5	1	1.4	5792	inactive
8	CUEDC1	1	-0.92	5858	inactive
9	ATP8B3	1	0.21	5746	inactive
10	DYRK2	1	-0.64	3747	inactive
11	TFDP2	1	0.78	4652	inactive
12	CD209	1	0.02	6028	inactive
13	HIRIP3	1	-1.49	4588	inactive
14	BBS9	1	0.21	5340	inactive
15	NSD1	1	0.36	5970	inactive
16	PCBP2	1	0.23	5917	inactive
17	CD55	1	-0.63	6368	inactive
18	RAVER1	1	1.29	5016	inactive
19	TMEM150A	1	-0.32	5798	inactive
20	FAM47A	1	0.9	6244	inactive
21	APOH	1	0.68	5840	inactive
22	OR2L8	1	0.02	5748	inactive
23	HLA-DPA1	1	0.84	6184	inactive
24	MTRES1	1	-0.86	5561	inactive
25	ZNF667	1	0.1	5654	inactive
26	SLC5A2	1	0.76	6504	inactive
27	EVA1C	1	-1.27	6362	inactive
28	PRSS8	1	-0.54	4670	inactive
29	PGAM2	1	0.16	5730	inactive
30	SLC2A10	1	-3.41	5206	active
31	IRF4	1	0.26	5871	inactive
32	RING1	1	-0.75	4744	inactive
33	LXN	1	1.34	5739	inactive
34	SMIM43	1	-1.48	6222	inactive
35	FZD4	1	0.86	7058	inactive
36	GTSF1	1	-0.86	4738	inactive
37	RNF11	1	-0.86	6190	inactive
38	FBXO33	1	0.57	5342	inactive
39	CTU2	1	0.33	6481	inactive
40	NPFFR1	1	-0.49	5283	inactive
41	OR10X1	1	0.86	5326	inactive
42	LZTS3	1	-2.46	3960	active
43	CDH7	1	-1.38	6214	inactive
44	BKGD	1	-0.52	6588	inactive
45	UBAP2	1	0.09	4986	inactive
46	MED16	1	1.68	5384	inactive
47	PYCR1	1	-1.08	5192	inactive
48	HNF4G	1	0.1	6342	inactive
49	POC1A	1	0.03	5927	inactive
50	CLDN10	1	0.93	5288	inactive
51	SYNPO2L	1	0.99	5812	inactive
52	LIMD2	1	-0.29	5472	inactive
53	VWCE	1	-1.36	4730	inactive
54	RPL6	1	-0.29	4249	inactive
55	TMEM63B	1	-1.89	4736	inactive
56	OR1J2	1	-0.1	5712	inactive
57	CYTH1	1	-0.19	5684	inactive
58	CSTA	1	-0.24	6380	inactive
59	AHCTF1	1	-0.21	6408	inactive
60	ADGRL4	1	-0.1	6057	inactive
61	SPIN1	1	-0.27	6692	inactive
62	ZWINT	1	-0.06	5752	inactive
63	PLPP3	1	-2.83	6098	active
64	KLHL15	1	0.66	4473	inactive
65	ANGPTL8	1	-1.14	5137	inactive
66	SYNGAP1	1	-2.31	5302	active
67	CCNA2	1	-0.7	2482	inactive
68	TAAR1	1	1.48	6120	inactive
69	TOR1AIP2	1	-1.74	5514	inactive
70	TOR1AIP2	2	-0.88	5750	inactive
71	ZBTB38	1	-1.06	3870	inactive
72	CCL5	1	0.94	5902	inactive
73	FAM107A	1	-1.15	3088	inactive
